The source of these data is publication doi:10.1101/534271.

Protein sequences, listed by entry. Tags and fused reporters are not part of them.
UniProt Q07243: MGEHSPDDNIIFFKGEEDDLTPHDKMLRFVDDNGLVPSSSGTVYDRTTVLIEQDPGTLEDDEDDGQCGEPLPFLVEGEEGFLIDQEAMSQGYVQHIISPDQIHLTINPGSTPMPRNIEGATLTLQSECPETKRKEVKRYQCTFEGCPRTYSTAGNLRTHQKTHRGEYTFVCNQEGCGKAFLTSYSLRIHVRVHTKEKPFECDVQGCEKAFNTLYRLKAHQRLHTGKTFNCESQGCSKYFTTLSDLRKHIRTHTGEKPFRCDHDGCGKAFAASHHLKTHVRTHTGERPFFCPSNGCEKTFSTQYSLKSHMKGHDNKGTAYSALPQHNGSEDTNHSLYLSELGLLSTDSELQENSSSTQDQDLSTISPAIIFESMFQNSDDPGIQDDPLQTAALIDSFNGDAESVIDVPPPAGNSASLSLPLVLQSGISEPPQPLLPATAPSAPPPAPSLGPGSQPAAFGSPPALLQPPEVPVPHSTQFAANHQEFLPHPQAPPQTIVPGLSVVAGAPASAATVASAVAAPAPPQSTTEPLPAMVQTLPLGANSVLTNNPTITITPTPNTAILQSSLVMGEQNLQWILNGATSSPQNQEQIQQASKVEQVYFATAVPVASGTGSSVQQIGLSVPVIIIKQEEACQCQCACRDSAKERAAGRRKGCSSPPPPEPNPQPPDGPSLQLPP
UniProt P10085: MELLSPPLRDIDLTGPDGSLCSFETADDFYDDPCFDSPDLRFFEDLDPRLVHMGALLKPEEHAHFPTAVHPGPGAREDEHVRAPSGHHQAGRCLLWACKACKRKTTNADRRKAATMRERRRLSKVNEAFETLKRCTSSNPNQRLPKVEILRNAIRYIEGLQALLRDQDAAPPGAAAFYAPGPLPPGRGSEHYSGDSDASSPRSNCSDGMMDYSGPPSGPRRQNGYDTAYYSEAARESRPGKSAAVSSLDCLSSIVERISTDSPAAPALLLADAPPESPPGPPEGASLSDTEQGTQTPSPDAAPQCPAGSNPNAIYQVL

No constants are given. Whether binding was seen depends on the method and setting. Binding seen in cells or lysates may run through a third protein. Some binding calls cover weakened binding; strength is not graded here.

This test addresses MTF1 (mouse (endogenous in primary myoblasts from mouse satellite cells)) (UniProt Q07243). In words: co-IP.

With MyoD (from UniProt P10085 1-318), the binding result was “binds”.
